The list shows only some results of the screen, not a fair sample: it gathers tests that were run many times, whatever their T/C, doses with no T/C, and many T/C values between a quarter and a half above the control. Further doses and runs are listed elsewhere. T/C is the treated group as % of the vehicle group. Some entries give survivors of the animals treated and no T/C: the source files T/C as zero there, which appears to mark a toxic dose or a test without result, not a measured value. Some doses without a T/C left all or most animals alive at the check, yet need not have been tolerated: the source hardly ever lists a survival T/C far under the control, and the zero likely stands for such cases as well. Survivors were counted at the toxicity check, usually on the fifth day, unless a day is given; later deaths do not show. Schedules are NCI's codes, taken here to give the interval after Q, in days (D) or hours (H), and the number of doses after X. Some schedule codes hold Z or #, which are not explained here. Some doses were run more than once; their values stand side by side, smallest first. For survival time, the PubChem record calls one and a half times the control and up active, and a quarter to a half above the control has no call in these data; cut-offs in other NCI protocols can differ. Some T/C values are followed by the survivors on the day toxicity was checked, most often the fifth; without a count, all were alive then.
Test system: L1210 leukemia ip in BDF1 mice, survival T/C
Test: NCI In Vivo Anticancer Drug Screen. Data for tumor model L1210 Leukemia (intraperitoneal) in B6D2F1 (BDF1) mice
Details: T/C endpoint: mean survival time, higher T/C = longer survival
[1] = dose: 100.0 mg/kg/injection, schedule: Q01DX009 (ip), vehicle: saline
[2] = dose: 200.0 mg/kg/injection, schedule: Q01DX009 (ip), vehicle: saline
[3] = dose: 400.0 mg/kg/injection, schedule: Q04DX003 (ip), vehicle: saline
[4] = dose: 200.0 mg/kg/injection, schedule: Q01DX009 (ip), vehicle: saline with Tween-80
[5] = dose: 400.0 mg/kg/injection, schedule: Q01DX001 (ip), vehicle: carboxymethylcellulose (CMC)

Q: With O=C1C=C/C(=N/S(=O)(=O)c2ccccc2)c2ccccc21 as the molecule, how does the survivor count (dose: 25.0 mg/kg/injection, schedule: Q01DX009 (ip), vehicle: DMSO) read?
A: 6 of 6

Q: And the survivor count (dose: 50.0 mg/kg/injection, schedule: Q01DX009 (ip), vehicle: DMSO)?
A: 6 of 6

Q: And the survivor count (dose: 100.0 mg/kg/injection, schedule: Q01DX009 (ip), vehicle: DMSO)?
A: 1 of 6

Q: And the survivor count (dose: 200.0 mg/kg/injection, schedule: Q04DX003 (ip), vehicle: DMSO)?
A: 1 of 6

Q: What about the survivor count (dose: 400.0 mg/kg/injection, schedule: Q04DX003 (ip), vehicle: DMSO) of the same molecule?
A: 0 of 6

Q: What does the source list for Nc1ccc2ccc(O)cc2c1?
A: survivor count [1]: 3 of 6; T/C (dose: 100.0 mg/kg/injection, schedule: Q04DX003 (ip), vehicle: saline): 144 % of control [5 of 6 alive]; survivor count [2]: 3 of 6; survivor count (dose: 400.0 mg/kg/injection, schedule: Q01DX009 (ip), vehicle: saline): 0 of 6; survivor count [3]: 0 of 6

Q: Which results are given for COc1ccc(/C=N/NC(=O)CNC(=O)Nc2cccc(Cl)c2)cc1?
A: survivor count (dose: 100.0 mg/kg/injection, schedule: Q01DX009 (ip), vehicle: saline with Tween-80): 3 of 3; survivor count [4]: 2 of 3

Q: Which survivor count (dose: 100.0 mg/kg/injection, schedule: Q01DX001 (ip), vehicle: carboxymethylcellulose (CMC)) does the source give for CC1=C(C)C(=O)C=CC1=O here?
A: 0 of 4

Q: What about the survivor count (dose: 200.0 mg/kg/injection, schedule: Q01DX001 (ip), vehicle: carboxymethylcellulose (CMC)) of the same molecule?
A: 0 of 4

Q: What about the survivor count [5] of the same molecule?
A: 0 of 4

Q: Which results are given for C/C(=N/N=C(N)N)c1ccc(/C(C)=N/N=C(N)N)cc1?
A: T/C (dose: 60.0 mg/kg/injection, schedule: Q01DX Z (ip), vehicle: carboxymethylcellulose (CMC)): 125 % of control; survivor count (dose: 60.0 mg/kg/injection, schedule: Q01DX Z (ip), vehicle: saline): 5 of 6; survivor count (dose: 120.0 mg/kg/injection, schedule: Q01DX Z (ip), vehicle: saline): 0 of 6

Q: How did the survivor count [3] turn out when CCCCOCCOCCOc1ccc(C(=O)O)cc1 was run?
A: 6 of 6

Q: CCCCCCCCCCCCCCCC(=O)Nc1ccc(Cl)c(Cl)c1 was tested. Which survivor count [5] did it give?
A: 6 of 6

Q: For COc1ccc(C(CC(C)=O)c2c(O)c3ccccc3oc2=O)cc1OC (stereo not drawn), which survivor count (dose: 50.0 mg/kg/injection, schedule: Q01DX009 (ip), vehicle: water) is on record?
A: 3 of 6

Q: What about the survivor count (dose: 100.0 mg/kg/injection, schedule: Q01DX009 (ip), vehicle: water) of the same molecule?
A: 2 of 6

Q: What about the survivor count (dose: 200.0 mg/kg/injection, schedule: Q01DX009 (ip), vehicle: water) of the same molecule?
A: 0 of 6

Q: And the survivor count (dose: 400.0 mg/kg/injection, schedule: Q01DX009 (ip), vehicle: water)?
A: 0 of 6

Q: What does the source list for Cc1cc(NC(=O)Nc2ccc(C3=NCCN3)cc2)ccc1NC(=O)Nc1ccc(C2=NCCN2)cc1?
A: T/C (dose: 125.0 mg/kg/injection, schedule: Q01DX Z (ip), vehicle: carboxymethylcellulose (CMC)): 131 % of control; T/C (dose: 500.0 mg/kg/injection, schedule: Q01DX Z (ip), vehicle: carboxymethylcellulose (CMC)): 135 % of control

Q: For NC(CO)C(=O)O.[Cl-].[Cl-].[Cl-].[Cl-].[Pt+2] (stereo not drawn), which T/C (dose: 25.0 mg/kg/injection, schedule: Q01DX009 (ip), vehicle: saline) is on record?
A: 125 % of control

Q: And the T/C (dose: 50.0 mg/kg/injection, schedule: Q01DX009 (ip), vehicle: saline)?
A: 133 and 138 % of control

Q: What about the survivor count [1] of the same molecule?
A: 2 of 6, 2 of 3, 4 of 6

Q: What about the survivor count [2] of the same molecule?
A: 0 of 3

Q: For CCN(C(=O)Nc1ccccc1F)c1cc(OC)ccc1C, which survivor count [4] is on record?
A: 3 of 3

Q: How did the T/C (dose: 100.0 mg/kg/injection, schedule: Q04DX002 (ip), vehicle: Klucel (hydroxypropylcellulose) (HPC)) turn out when Brc1cnc(Br)s1 was run?
A: 125 % of control

Q: What about the survivor count (dose: 200.0 mg/kg/injection, schedule: Q04DX002 (ip), vehicle: Klucel (hydroxypropylcellulose) (HPC)) of the same molecule?
A: 1 of 3

Q: What about the survivor count (dose: 400.0 mg/kg/injection, schedule: Q04DX002 (ip), vehicle: Klucel (hydroxypropylcellulose) (HPC)) of the same molecule?
A: 0 of 3

Q: CC(Cl)(CCl)C(=O)O (stereo not drawn) was tested. Which survivor count (dose: 200.0 mg/kg/injection, schedule: Q01DX001 (ip), vehicle: saline) did it give?
A: 1 of 3

Q: With CCCNc1ncnc2c1cnn2C as the molecule, how does the survivor count [1] read?
A: 6 of 6

Q: What about the survivor count [2] of the same molecule?
A: 1 of 6

Q: And the survivor count (dose: 400.0 mg/kg/injection, schedule: Q01DX001 (ip), vehicle: saline)?
A: 0 of 6
